Measurements: PubChem BioAssay AID248 (DTP/NCI, 2004)
The list does not hold the whole screen: it gathers tests that were run many times, whatever their T/C, doses with no T/C, and many T/C values between a quarter and a half above the control. Other doses and runs of a compound stand elsewhere. T/C gives the treated animals as a percentage of the vehicle group. Some entries give survivors of the animals treated and no T/C: the source files T/C as zero there, which appears to mark a toxic dose or a test without result, not a measured value. Some survivor counts are full or nearly so, which does not show that the dose was tolerated: the source hardly ever lists a survival T/C far under the control, and the zero likely stands for such cases as well. Survivors were counted at the toxicity check, usually on the fifth day, unless a day is given; later deaths do not show. Schedule codes are those of the source, taken here to give the interval after Q, in days (D) or hours (H), and the number of doses after X. Some schedules carry Z or #; the key to these is not given. For survival time, this PubChem deposit counts one and a half times the control or more as active, and values a quarter to a half above the control carry no call in these data; other NCI protocols may use other cut-offs. Some doses were run more than once; the values are given in rising order. Some T/C values carry the count of animals alive at the toxicity check (mostly the fifth day); without a count, all were alive then.

Tested on: L1210 leukemia ip in BDF1 mice, survival T/C
Assay: NCI In Vivo Anticancer Drug Screen. Data for tumor model L1210 Leukemia (intraperitoneal) in B6D2F1 (BDF1) mice
Details: T/C endpoint: mean survival time, higher T/C = longer survival
[1] = dose: 400.0 mg/kg/injection, schedule: Q01DX009 (ip), vehicle: Klucel (hydroxypropylcellulose) (HPC)
[2] = dose: 200.0 mg/kg/injection, schedule: Q01DX001 (ip), vehicle: other
[3] = dose: 400.0 mg/kg/injection, schedule: Q01DX001 (ip), vehicle: other
[4] = dose: 200.0 mg/kg/injection, schedule: Q01DX001 (ip), vehicle: saline
[5] = dose: 400.0 mg/kg/injection, schedule: Q04DX002 (ip), vehicle: Klucel (hydroxypropylcellulose) (HPC)
[6] = dose: 400.0 mg/kg/injection, schedule: Q01DX009 (ip), vehicle: saline

SMILES: Nc1cc(C(=O)Nc2ccc(CCNC3=NCCN3)cc2)ccc1C(=O)Nc1ccc(CCNC2=NCCN2)cc1
- T/C (dose: 3.75 mg/kg/injection, schedule: Q01DX Z (ip), vehicle: water): 146 % of control
- T/C (dose: 15.0 mg/kg/injection, schedule: Q01DX Z (ip), vehicle: water): 141 % of control [5 of 6 alive]
- survivor count (dose: 18.7 mg/kg/injection, schedule: Q01DX001 (ip), vehicle: water): 0 of 6
- survivor count (dose: 20.0 mg/kg/injection, schedule: Q01DX015 (ip), vehicle: water): 0 of 6
- survivor count (dose: 30.0 mg/kg/injection, schedule: Q01DX015 (ip), vehicle: water): 0 of 6
- survivor count (dose: 30.0 mg/kg/injection, schedule: Q01DX Z (ip), vehicle: water): 0 of 6
- survivor count (dose: 37.5 mg/kg/injection, schedule: Q01DX001 (ip), vehicle: water): 0 of 6
- survivor count (dose: 40.0 mg/kg/injection, schedule: Q01DX015 (ip), vehicle: water): 0 of 6
- survivor count (dose: 75.0 mg/kg/injection, schedule: Q01DX001 (ip), vehicle: water): 0 of 6
- survivor count (dose: 280.0 mg/kg/injection, schedule: Q01DX Z (oral), vehicle: water): 0 of 6
- survivor count (dose: 425.0 mg/kg/injection, schedule: Q01DX Z (oral), vehicle: water): 3 of 6

SMILES: O=C1C2C3CCC4C5C3C1C5S(=O)(=O)C42 (centres undefined)
- survivor count (dose: 15.0 mg/kg/injection, schedule: Q01DX001 (ip), vehicle: carboxymethylcellulose (CMC)): 0 of 6
- survivor count (dose: 30.0 mg/kg/injection, schedule: Q01DX001 (ip), vehicle: carboxymethylcellulose (CMC)): 0 of 6
- survivor count (dose: 60.0 mg/kg/injection, schedule: Q01DX001 (ip), vehicle: carboxymethylcellulose (CMC)): 0 of 6
- survivor count (dose: 75.0 mg/kg/injection, schedule: Q01DX001 (ip), vehicle: carboxymethylcellulose (CMC)): 0 of 6
- survivor count (dose: 150.0 mg/kg/injection, schedule: Q01DX001 (ip), vehicle: carboxymethylcellulose (CMC)): 0 of 6
- survivor count (dose: 300.0 mg/kg/injection, schedule: Q01DX001 (ip), vehicle: carboxymethylcellulose (CMC)): 0 of 6

SMILES: Cc1ccc(Cl)cc1NC(=O)Oc1ccc(Cl)cc1C
- survivor count (dose: 200.0 mg/kg/injection, schedule: Q01DX009 (ip), vehicle: Klucel (hydroxypropylcellulose) (HPC)): 2 of 6
- survivor count [1]: 3 of 6

SMILES: CCOP(=S)(N/N=C1\CC2CCC1C2)OCC (centres undefined)
- survivor count [2]: 2 of 4
- survivor count [3]: 0 of 4

SMILES: O=C(c1ccccc1)C(C(=O)c1ccccc1)C(c1ccccc1)C(C(=O)c1ccccc1)C(c1ccccc1)c1ccccc1 (centres undefined)
- survivor count [4]: 6 of 6

SMILES: CCCCCCCCNCCCCCCCC
- survivor count (dose: 37.0 mg/kg/injection, schedule: Q01DX009 (ip), vehicle: other): 3 of 6
- survivor count (dose: 75.0 mg/kg/injection, schedule: Q01DX009 (ip), vehicle: other): 0 of 6
- survivor count (dose: 150.0 mg/kg/injection, schedule: Q01DX009 (ip), vehicle: other): 0 of 6
- survivor count [2]: 1 of 4
- survivor count (dose: 300.0 mg/kg/injection, schedule: Q01DX009 (ip), vehicle: other): 0 of 6
- survivor count [3]: 0 of 4

SMILES: CCCSCCCCSCCC
- survivor count (dose: 100.0 mg/kg/injection, schedule: Q04DX003 (ip), vehicle: saline with Tween-80): 6 of 6

SMILES: Cc1cc(NC(=O)Nc2ccc(C3=NCCN3)cc2)ccc1NC(=O)Nc1ccc(C2=NCCN2)cc1
- T/C (dose: 125.0 mg/kg/injection, schedule: Q01DX Z (ip), vehicle: carboxymethylcellulose (CMC)): 131 % of control
- T/C (dose: 500.0 mg/kg/injection, schedule: Q01DX Z (ip), vehicle: carboxymethylcellulose (CMC)): 135 % of control

SMILES: COc1ccc(C(C)(C#N)Nc2ccccc2)cc1 (centres undefined)
- survivor count (dose: 400.0 mg/kg/injection, schedule: Q04DX003 (ip), vehicle: saline with Tween-80): 3 of 6

SMILES: O=Nc1c(O)ccc2ncccc12
- survivor count (dose: 300.0 mg/kg/injection, schedule: Q01DX001 (ip), vehicle: other): 2 of 6

SMILES: CCN(CCO)CC(C)Nc1ccc([N+](=O)[O-])c2sc3ccccc3c(=O)c12 (centres undefined)
- T/C (dose: 12.0 mg/kg/injection, schedule: Q01DX Z (ip), vehicle: saline): 140 % of control
- T/C (dose: 18.0 mg/kg/injection, schedule: Q01DX Z (ip), vehicle: saline): 133 % of control
- T/C (dose: 61.0 mg/kg/injection, schedule: Q01DX Z (ip), vehicle: saline): 138 % of control
- survivor count (dose: 135.0 mg/kg/injection, schedule: Q01DX Z (ip), vehicle: saline): 7 of 7
- T/C [4]: 130 % of control
- survivor count (dose: 270.0 mg/kg/injection, schedule: Q01DX Z (ip), vehicle: other): 6 of 6
- survivor count (dose: 600.0 mg/kg/injection, schedule: Q01DX001 (ip), vehicle: saline): 3 of 4
- survivor count (dose: 900.0 mg/kg/injection, schedule: Q01DX001 (ip), vehicle: saline): 2 of 4

SMILES: Cc1no[n+]([O-])c1C(=O)O
- survivor count [5]: 1 of 3

SMILES: CCN(CC)C(C)(C)CCl
- survivor count [4]: 0 of 6
- survivor count (dose: 400.0 mg/kg/injection, schedule: Q01DX001 (ip), vehicle: saline): 0 of 6

SMILES: CCn1c(O)c(C=N)c(=O)[nH]c1=O
- survivor count [6]: 3 of 6

SMILES: Brc1cnc(Br)s1
- T/C (dose: 100.0 mg/kg/injection, schedule: Q04DX002 (ip), vehicle: Klucel (hydroxypropylcellulose) (HPC)): 125 % of control
- survivor count (dose: 200.0 mg/kg/injection, schedule: Q04DX002 (ip), vehicle: Klucel (hydroxypropylcellulose) (HPC)): 1 of 3
- survivor count [5]: 0 of 3

SMILES: N#CCCO
- T/C (dose: 200.0 mg/kg/injection, schedule: Q04DX002 (ip), vehicle: saline): 125 % of control

SMILES: CCN1Cc2ccc(O)cc2C1
- survivor count (dose: 200.0 mg/kg/injection, schedule: Q01DX009 (ip), vehicle: saline): 5 of 6
- survivor count (dose: 200.0 mg/kg/injection, schedule: Q04DX003 (ip), vehicle: saline): 5 of 6
- survivor count [6]: 0 of 6
- survivor count (dose: 400.0 mg/kg/injection, schedule: Q04DX003 (ip), vehicle: saline): 0 of 6

SMILES: Cc1ccc(C(=O)Nc2ncn(C3CC(O)C(CO)O3)c(=O)n2)cc1 (centres undefined)
- T/C (dose: 12.5 mg/kg/injection, schedule: Q04DX003 (ip), vehicle: saline with Tween-80): 130 % of control
- T/C (dose: 25.0 mg/kg/injection, schedule: Q01DX005 (ip), vehicle: saline): 147 % of control

SMILES: Cc1nc2c(O)cccc2cc1CO
- survivor count [1]: 6 of 6

SMILES: CCNC(=O)c1ccc(NC(=O)Nc2ccc(C3=NCCN3)cc2)cc1NC(=O)Nc1ccc(C2=NCCN2)cc1
- T/C (dose: 25.0 mg/kg/injection, schedule: Q01DX015 (ip), vehicle: water): 147 % of control
- T/C (dose: 46.0 mg/kg/injection, schedule: Q01DX001 (ip), vehicle: water): 130 and 133 % of control
- T/C (dose: 93.0 mg/kg/injection, schedule: Q01DX001 (ip), vehicle: water): 145 % of control
- survivor count (dose: 125.0 mg/kg/injection, schedule: Q01DX Z (ip), vehicle: water): 0 of 6
- survivor count (dose: 250.0 mg/kg/injection, schedule: Q01DX Z (ip), vehicle: water): 0 of 6
- survivor count (dose: 500.0 mg/kg/injection, schedule: Q01DX Z (ip), vehicle: water): 0 of 6

SMILES: CCC1CC2c3cc(OC)c(OC)cc3CCN2CC1(O)c1ccccc1 (centres undefined)
- survivor count (dose: 100.0 mg/kg/injection, schedule: Q04DX003 (ip), vehicle: carboxymethylcellulose (CMC)): 0 of 6
- survivor count (dose: 200.0 mg/kg/injection, schedule: Q01DX001 (ip), vehicle: carboxymethylcellulose (CMC)): 3 of 6
- survivor count (dose: 200.0 mg/kg/injection, schedule: Q04DX003 (ip), vehicle: carboxymethylcellulose (CMC)): 0 of 6
- survivor count (dose: 400.0 mg/kg/injection, schedule: Q01DX001 (ip), vehicle: carboxymethylcellulose (CMC)): 0 of 6
- survivor count (dose: 400.0 mg/kg/injection, schedule: Q04DX003 (ip), vehicle: carboxymethylcellulose (CMC)): 0 of 6

SMILES: CC(C)OCCS(=O)(=O)Oc1ncc(Cl)cc1Cl
- survivor count (dose: 100.0 mg/kg/injection, schedule: Q01DX009 (ip), vehicle: saline with Tween-80): 6 of 6
- survivor count (dose: 200.0 mg/kg/injection, schedule: Q01DX009 (ip), vehicle: saline with Tween-80): 5 of 6
